The target of one assay is Flag-NEDD4L (UniProt Q96PU5). Nature of the assay: co-IP; HEK293T cells co-transfected with Flag-NEDD4L and HA-eEF1A1 for 24 h; lysates immunoprecipitated with anti-Flag, blotted with anti-HA.
Assay [1] addresses NEDD4L (endogenous, HUVECs) (human (endogenous in HUVECs)) (UniProt Q96PU5). In words: co-IP; HUVEC whole-cell lysates, with or without si-NEDD4L for 24 h; IP with anti-NEDD4L or anti-eEF1A1, protein A-agarose, washed with IPH buffer at 4°C; blotted for eEF1A1 and NEDD4L.

Amino acid sequences for entries named in this document (tags omitted).
UniProt Q96PU5: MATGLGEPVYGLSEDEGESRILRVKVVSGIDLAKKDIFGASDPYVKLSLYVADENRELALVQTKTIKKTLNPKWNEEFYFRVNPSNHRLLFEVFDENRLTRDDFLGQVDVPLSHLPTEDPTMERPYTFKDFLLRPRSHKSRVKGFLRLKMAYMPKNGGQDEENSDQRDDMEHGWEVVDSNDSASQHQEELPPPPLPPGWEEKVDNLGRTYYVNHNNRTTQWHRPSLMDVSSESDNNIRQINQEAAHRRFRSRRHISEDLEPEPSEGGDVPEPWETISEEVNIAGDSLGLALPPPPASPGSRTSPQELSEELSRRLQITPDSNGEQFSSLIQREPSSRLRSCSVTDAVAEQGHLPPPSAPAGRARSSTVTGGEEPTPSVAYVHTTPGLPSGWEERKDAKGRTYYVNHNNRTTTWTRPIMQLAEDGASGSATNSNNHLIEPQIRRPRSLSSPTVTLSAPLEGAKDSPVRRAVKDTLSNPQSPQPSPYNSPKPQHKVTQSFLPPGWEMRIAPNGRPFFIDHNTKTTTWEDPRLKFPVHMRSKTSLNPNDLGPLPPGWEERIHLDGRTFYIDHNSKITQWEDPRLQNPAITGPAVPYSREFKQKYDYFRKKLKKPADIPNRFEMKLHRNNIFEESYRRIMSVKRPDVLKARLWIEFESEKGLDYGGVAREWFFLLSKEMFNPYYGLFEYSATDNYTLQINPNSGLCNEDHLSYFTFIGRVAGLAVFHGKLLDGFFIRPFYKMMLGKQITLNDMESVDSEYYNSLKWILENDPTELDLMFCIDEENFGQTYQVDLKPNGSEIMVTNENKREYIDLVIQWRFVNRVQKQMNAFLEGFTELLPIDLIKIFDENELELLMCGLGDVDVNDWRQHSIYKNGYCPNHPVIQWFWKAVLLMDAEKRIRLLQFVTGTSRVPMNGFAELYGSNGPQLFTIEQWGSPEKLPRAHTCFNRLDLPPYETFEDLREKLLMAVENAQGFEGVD
UniProt P68104: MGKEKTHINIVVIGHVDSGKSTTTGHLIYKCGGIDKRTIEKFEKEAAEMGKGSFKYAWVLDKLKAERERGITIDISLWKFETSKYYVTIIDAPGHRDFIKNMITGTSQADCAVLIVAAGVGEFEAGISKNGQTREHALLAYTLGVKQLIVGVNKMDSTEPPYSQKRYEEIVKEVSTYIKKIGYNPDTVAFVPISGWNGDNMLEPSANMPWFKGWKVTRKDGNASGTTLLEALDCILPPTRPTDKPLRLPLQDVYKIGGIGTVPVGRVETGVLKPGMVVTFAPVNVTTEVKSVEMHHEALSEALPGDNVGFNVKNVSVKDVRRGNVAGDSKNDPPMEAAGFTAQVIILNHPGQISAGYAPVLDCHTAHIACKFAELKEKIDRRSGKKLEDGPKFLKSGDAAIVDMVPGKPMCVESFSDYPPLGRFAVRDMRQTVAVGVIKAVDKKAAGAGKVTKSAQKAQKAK

Results are given in words; binding and its absence hold for the method and conditions named. In cells and extracts the contact can be indirect. Some binding calls cover weakened binding; strength is not graded here.

Consider HA-eEF1A1 (from UniProt P68104 1-462), for which, in the assay with Flag-NEDD4L, the binding result is on record as “binds”.
In the case of “eEF1A1 (endogenous, HUVECs) (from UniProt P68104 1-462)”, the binding result in assay [1] is on record as “binds”.
